## Screening data, single-dose tests

The chains behind the UniProt entries cited, without tags or fusion partners. Residues count along the entry.
UniProt A4I591, 1-473: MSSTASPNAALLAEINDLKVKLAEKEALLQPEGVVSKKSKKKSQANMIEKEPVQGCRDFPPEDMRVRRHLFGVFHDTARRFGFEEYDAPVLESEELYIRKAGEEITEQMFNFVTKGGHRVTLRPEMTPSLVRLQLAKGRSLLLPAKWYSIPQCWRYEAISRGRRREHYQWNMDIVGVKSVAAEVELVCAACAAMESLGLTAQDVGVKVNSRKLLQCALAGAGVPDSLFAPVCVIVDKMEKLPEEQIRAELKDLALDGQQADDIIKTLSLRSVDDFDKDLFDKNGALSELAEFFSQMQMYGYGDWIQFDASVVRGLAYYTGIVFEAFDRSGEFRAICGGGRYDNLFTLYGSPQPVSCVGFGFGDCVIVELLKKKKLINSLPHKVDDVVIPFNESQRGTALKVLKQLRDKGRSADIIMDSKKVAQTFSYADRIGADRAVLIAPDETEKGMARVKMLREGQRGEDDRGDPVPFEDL
UniProt I6X8D2, whole entry: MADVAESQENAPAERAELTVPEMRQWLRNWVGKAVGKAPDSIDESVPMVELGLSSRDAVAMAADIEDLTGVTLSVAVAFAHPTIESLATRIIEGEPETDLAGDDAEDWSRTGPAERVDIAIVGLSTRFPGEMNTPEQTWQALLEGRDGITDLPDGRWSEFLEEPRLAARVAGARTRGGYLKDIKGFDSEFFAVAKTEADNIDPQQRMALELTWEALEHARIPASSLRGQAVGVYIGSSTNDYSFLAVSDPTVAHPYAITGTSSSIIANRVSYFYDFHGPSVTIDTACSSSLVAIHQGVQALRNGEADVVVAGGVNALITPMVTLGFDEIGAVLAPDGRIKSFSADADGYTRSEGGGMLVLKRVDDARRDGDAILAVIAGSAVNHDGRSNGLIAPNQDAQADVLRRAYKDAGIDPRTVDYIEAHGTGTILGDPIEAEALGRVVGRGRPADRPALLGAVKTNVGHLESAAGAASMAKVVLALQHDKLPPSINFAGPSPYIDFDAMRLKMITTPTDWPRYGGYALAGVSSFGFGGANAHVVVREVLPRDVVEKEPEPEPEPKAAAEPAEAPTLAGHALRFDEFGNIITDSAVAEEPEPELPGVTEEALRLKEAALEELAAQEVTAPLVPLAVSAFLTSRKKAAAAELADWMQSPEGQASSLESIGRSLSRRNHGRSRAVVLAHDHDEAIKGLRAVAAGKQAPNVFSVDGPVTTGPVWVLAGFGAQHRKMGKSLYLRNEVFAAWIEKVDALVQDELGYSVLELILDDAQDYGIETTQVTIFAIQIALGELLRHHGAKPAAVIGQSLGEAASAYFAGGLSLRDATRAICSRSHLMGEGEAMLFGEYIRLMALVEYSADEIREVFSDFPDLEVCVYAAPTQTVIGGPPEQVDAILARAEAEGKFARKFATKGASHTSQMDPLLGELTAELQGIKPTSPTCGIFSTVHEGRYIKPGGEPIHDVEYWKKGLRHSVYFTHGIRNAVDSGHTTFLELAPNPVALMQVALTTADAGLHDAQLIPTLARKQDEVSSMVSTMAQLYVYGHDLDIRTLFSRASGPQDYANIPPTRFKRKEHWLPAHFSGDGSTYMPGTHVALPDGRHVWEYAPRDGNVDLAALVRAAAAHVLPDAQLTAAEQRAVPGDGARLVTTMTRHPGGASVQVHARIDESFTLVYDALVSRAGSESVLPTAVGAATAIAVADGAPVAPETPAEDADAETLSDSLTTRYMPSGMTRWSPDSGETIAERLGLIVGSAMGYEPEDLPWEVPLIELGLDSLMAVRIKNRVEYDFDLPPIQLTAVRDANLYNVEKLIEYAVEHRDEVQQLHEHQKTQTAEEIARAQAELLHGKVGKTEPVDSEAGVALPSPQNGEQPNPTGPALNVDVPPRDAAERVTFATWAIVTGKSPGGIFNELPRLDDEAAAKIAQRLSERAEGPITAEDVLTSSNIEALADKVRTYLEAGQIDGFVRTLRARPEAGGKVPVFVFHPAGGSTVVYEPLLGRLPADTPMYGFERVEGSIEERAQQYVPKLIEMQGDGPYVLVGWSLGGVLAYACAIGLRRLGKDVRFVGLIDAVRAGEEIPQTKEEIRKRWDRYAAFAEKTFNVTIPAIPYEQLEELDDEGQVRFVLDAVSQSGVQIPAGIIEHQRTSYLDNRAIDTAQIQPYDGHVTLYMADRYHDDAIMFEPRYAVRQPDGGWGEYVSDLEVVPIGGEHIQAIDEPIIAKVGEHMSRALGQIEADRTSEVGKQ

Source: ChEMBL document CHEMBL3988442, “University of Dundee, Small-Polar-MMV Screening Library” (2021).

LiHisRS: 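Histidine-tRNA ligase, Leishmania infantum (UniProt A4I591). Enzyme assay of histidyl-tRNA synthetase; the read-out is not stated. Concentration: 30 µM. Higher reads as stronger inhibition (inferred: compounds with an IC50 in retests scored well above the rest). The assay is labelled LdHisRS but filed under L. infantum. Of about 69,000 compounds tested this way, about 410 (0.6%) reached 50% or more in at least one test.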
Pks13 thioesterase: 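Enzyme assay of the thioesterase domain of polyketide synthase 13; the read-out is not stated. Target: Polyketide synthase Pks13, Mycobacterium tuberculosis (UniProt I6X8D2). Compounds at 30 µM. The record gives no direction; the compounds picked for IC50 retests had high values, so higher reads as stronger inhibition. Size under these conditions: about 67,000 compounds, about 300 of them at 50% or above in at least one test.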

Values are the deposited “Percent Effect”, in %.
The controls that fix the scale are not given in the record; negative values are as filed.
The compounds are a random part of those screened.

structure: Cc1cccc(C(C(=O)N2CC(c3cccnc3)C2)N(C)C)c1 (configuration not stated)
LiHisRS: 16%
Pks13 thioesterase: -45.16%

structure: CCCc1nc(CN(C)CC2CCN(CCO)CC2)no1
LiHisRS: 1.37%
Pks13 thioesterase: -18.34%

structure: Cc1cc2c(=O)n3c(nc2s1)CCN(C(=O)c1scnc1C)CC3
LiHisRS: 16.67%
Pks13 thioesterase: -41.81%

structure: CCC(=O)N1CCC2(CC1)CC(CC(=O)NC1CC1)c1ccccc1O2 (configuration not stated)
LiHisRS: 15.38%
Pks13 thioesterase: -30%

structure: Cc1ccc(-c2nccn2-c2ccc(OC3CCN(C)CC3)cc2)o1
LiHisRS: 9.79%

structure: CC(C)(C(=O)NCC(=O)NC1CC1)c1ccccc1F
LiHisRS: 14.16%
Pks13 thioesterase: -34.2%

structure: CN(C)C(=O)CN1CCC2(CCCN(Cc3ccsc3)C2)C1=O (configuration not stated)
LiHisRS: 13%
Pks13 thioesterase: -1.452%

structure: CN(C)C1CCN(C(=O)Cc2csc(-c3ncccn3)n2)CC1
LiHisRS: 7.143%
Pks13 thioesterase: -22.38%

structure: Cc1nc(C2CCNCC2)cc(N2CCCC(C(=O)NCCCO)C2)n1 (configuration not stated)
LiHisRS: 11.97%
Pks13 thioesterase: -8.93%

structure: O=C(CN1CCOC(c2ccc(Cl)c(Cl)c2)C1)NCc1ccco1 (configuration not stated)
LiHisRS: 14.52%
Pks13 thioesterase: 4.939%

structure: CCC(NC(=O)CN(C)Cc1ccc(C)o1)c1ccc(Br)cc1 (configuration not stated)
LiHisRS: 13.89%
Pks13 thioesterase: 8.43%

structure: CCOC(=O)c1ccc(CNC(=O)c2ccncc2Cl)o1
LiHisRS: -7.895%
Pks13 thioesterase: 3.159%

structure: Cc1cc(NC(=O)CN2CCN(C3CCCC3)C(=O)C2)nn1C
LiHisRS: 5.594%
Pks13 thioesterase: 4.207%

structure: COc1ccc(S(=O)(=O)NCCCc2ccc(N(C)C)cc2)cc1F
LiHisRS: 17.39%
Pks13 thioesterase: -9.06%

structure: CCc1nc(CN2CCN(C(=O)C3(C#N)CCCCC3)CC2)cs1
LiHisRS: 3.636%
Pks13 thioesterase: 1.754%

structure: CC(C)n1ccnc1CN1CCCN(C(=O)c2nccnc2N)CC1
LiHisRS: 23.4%
Pks13 thioesterase: 6.407%

structure: CO[C@H]1CC[C@H]2[C@H]1OCCN2C(=O)c1nn(C)c2ccccc12
LiHisRS: -54.72%
Pks13 thioesterase: -13.76%

structure: O=C(c1cnccn1)N1CCc2c(COCC3CC3)cncc2C1
LiHisRS: 8.824%
Pks13 thioesterase: -16.64%

structure: Cn1c(C(=O)N2CCC(C(N)=O)C2)c(Cl)c2ccccc21 (configuration not stated)
LiHisRS: 11.57%
Pks13 thioesterase: -24.56%

structure: CC(C)Cc1nc(COc2ccc(N(C)C(N)=O)cc2)no1
LiHisRS: -18.97%
Pks13 thioesterase: -12.64%

structure: COc1ccccc1[C@@H]1CN(Cc2cnn(C)c2C)C[C@H]1C(=O)O
LiHisRS: 30.3%
Pks13 thioesterase: -2.008%

structure: CCOCC(=O)N(Cc1ccccn1)Cc1ccccc1C
LiHisRS: 17.74%
Pks13 thioesterase: -41.29%

structure: COCCC1CCCCN1C(=O)c1coc(COc2ccccc2F)n1 (configuration not stated)
LiHisRS: 1.176%
Pks13 thioesterase: -3.457%

structure: O=C(NCc1nnc2n1CCCC2)N1CCc2ccccc2C1
LiHisRS: 16.22%
Pks13 thioesterase: -3.754%

structure: CSc1ccccc1CN1CCn2nc(CNC(C)=O)cc2C1
LiHisRS: 23.08%
Pks13 thioesterase: 27.3%

structure: CS(=O)(=O)NCC1CCCN(C(=O)COCC(F)(F)F)C1 (configuration not stated)
LiHisRS: -14.89%
Pks13 thioesterase: -7.874%

structure: Cn1ncc(C(=O)N2CCN(S(C)(=O)=O)CC2)c1Cl
LiHisRS: -1.724%
Pks13 thioesterase: -3.332%

structure: COc1c(CNCc2cccnc2OC(C)C)c(C(C)C)nn1C
LiHisRS: 0%
Pks13 thioesterase: -26.66%

structure: CN1CCN(Cc2ccncc2)C(=O)C12CCN(c1nccs1)CC2
LiHisRS: 6.897%
Pks13 thioesterase: -1.589%

structure: Cc1cc(NC2CCN(c3ccc(F)cc3)CC2)n2nc(C)cc2n1
LiHisRS: 24.66%
Pks13 thioesterase: -22.4%

structure: Cc1c(C(=O)NCCC(=O)N2CCCC2)cccc1-c1ccccn1
LiHisRS: 10.84%
Pks13 thioesterase: -2.108%

structure: Cn1cnc(S(=O)(=O)N2C[C@H]3CN(Cc4cccnc4)C[C@H]3C2)c1
LiHisRS: 3.509%
Pks13 thioesterase: 1.005%

structure: O=C(c1cccc(F)c1)N1CCN2C[C@H](OCc3cccnc3)C[C@H]2C1
LiHisRS: 9.489%
Pks13 thioesterase: -20.23%

structure: Cc1cc(NC(=O)NCCc2cscn2)nn1C
LiHisRS: 17.74%
Pks13 thioesterase: -30.03%

structure: O=C(c1cccc(S(=O)(=O)NC[C@@H]2C[C@H](F)CN2)c1)N1CCCCC1
LiHisRS: 16%
Pks13 thioesterase: -7.622%

structure: CCN(C1CCN(c2cccc(F)c2C(C)=O)CC1)S(C)(=O)=O
LiHisRS: 12.9%
Pks13 thioesterase: -3.632%

structure: Cn1cc(C2COC3(CCN(C(=O)c4ccsc4)CC3)C2)cn1 (configuration not stated)
LiHisRS: 22%
Pks13 thioesterase: -6.246%

structure: C[C@H](O)CNC(=O)c1cnc(-c2ccccc2)nc1O
LiHisRS: 15.38%
Pks13 thioesterase: -22.06%

structure: CCCn1c(O)nnc1SCC1OCCc2ccccc21 (configuration not stated)
LiHisRS: 11.4%

structure: COc1cccc(OC2CN(C(=O)C3CCCN(C(=O)N(C)C)C3)C2)c1 (configuration not stated)
LiHisRS: 18.33%
Pks13 thioesterase: 0.8866%

structure: O=C(NCc1cccs1)[C@H]1CO[C@H]2CCN(C3CCCC3)C[C@H]2C1
LiHisRS: 8.182%
Pks13 thioesterase: -16.15%

structure: O=c1[nH]cnc2[nH]c(N3CCNCC3)nc12
LiHisRS: 17.24%
Pks13 thioesterase: -9.545%

Some entries from above, unchanged:

For CN(C)C1CCN(C(=O)Cc2csc(-c3ncccn3)n2)CC1 the result was LiHisRS: 7.143%; Pks13 thioesterase: -22.38%.
For CCN(C1CCN(c2cccc(F)c2C(C)=O)CC1)S(C)(=O)=O the result was LiHisRS: 12.9%; Pks13 thioesterase: -3.632%.